Measurements reported in the supplement of paper PMC9233669.
Variants at the background level are over-represented here.

Tests used:
biotinyl-Phe-oxazolone = test: self-aminoacylation, catalytic enhancement (BFO) (fold over background); higher = more active; k-Seq, kA / k0A0; sequences stand for … in GGGAAUGGAUCCACAUCUACGAAUUC…UUCACUGCAGACUUGACGAAGCUG
How it was run: (§1)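 Mutagenized RNA pools with a 21-nt variable region (0.43 μM) reacted with each biotinyl-aminoacyl-oxazolone at 2–1250 μM. Reactions ran in 50 μL HEPES/NaCl/KCl/MgCl2/CaCl2 buffer with 5% acetonitrile, pH 6.9–7.0, for 90 minutes at room temperature. Streptavidin-captured RNA was quantified by triplicate qPCR and Illumina sequencing, and per-sequence fraction reacted was fit to a pseudo-first-order model with 1000 bootstraps. Catalytic enhancement is median kA divided by the uncatalyzed rate, the low-activity peak of a bimodal Gaussian fit.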

biotinyl-Leu-oxazolone = test: self-aminoacylation, catalytic enhancement (BLO) (fold over background); higher = more active; k-Seq, kA / k0A0; sequences stand for … in GGGAAUGGAUCCACAUCUACGAAUUC…UUCACUGCAGACUUGACGAAGCUG
How it was run: as §1

biotinyl-Trp-oxazolone = test: self-aminoacylation, catalytic enhancement (BWO) (fold over background); higher = more active; k-Seq, kA / k0A0; sequences stand for … in GGGAAUGGAUCCACAUCUACGAAUUC…UUCACUGCAGACUUGACGAAGCUG
How it was run: as §1

biotinyl-Met-oxazolone = test: self-aminoacylation, catalytic enhancement (BMO) (fold over background); higher = more active; k-Seq, kA / k0A0; sequences stand for … in GGGAAUGGAUCCACAUCUACGAAUUC…UUCACUGCAGACUUGACGAAGCUG
How it was run: as §1

biotinyl-Ile-oxazolone = test: self-aminoacylation, catalytic enhancement (BIO) (fold over background); higher = more active; k-Seq, kA / k0A0; sequences stand for … in GGGAAUGGAUCCACAUCUACGAAUUC…UUCACUGCAGACUUGACGAAGCUG
How it was run: as §1

biotinyl-Val-oxazolone = test: self-aminoacylation, catalytic enhancement (BVO) (fold over background); higher = more active; k-Seq, kA / k0A0; sequences stand for … in GGGAAUGGAUCCACAUCUACGAAUUC…UUCACUGCAGACUUGACGAAGCUG
How it was run: as §1

Sequence | self-aminoacylation (biotinyl-Phe-oxazolone) | self-aminoacylation (biotinyl-Leu-oxazolone) | self-aminoacylation (biotinyl-Trp-oxazolone) | self-aminoacylation (biotinyl-Met-oxazolone) | self-aminoacylation (biotinyl-Ile-oxazolone) | self-aminoacylation (biotinyl-Val-oxazolone)
CUACUUCAAACAAUCGAUCUA [Fam1A.1 aminoacylation ribozyme variant] | 0.839 | 0.546 | 0.404 | 0.449 | 0.551 | 0.822
AAGUUUGUUACUAGUCGCAAG [Fam3.1 aminoacylation ribozyme variant] | 1.95 | 1.06 | 1.22 | 1.28 | 1.47 | 1.18
GAGUUUGCUAAUAGUCGCUAG [Fam3.1 aminoacylation ribozyme variant] | 1.22 | 1.06 | 0.769 | 1.14 | 1.11 | 0.925
CCACACUGCAAGCAAUCGGAC [Fam1B.1 aminoacylation ribozyme variant] | 0.851 | 1.04 | 0.814 | 1.76 | 1.31 | 1.23
CUACCUCAAACAAUCGGCCUG [Fam1A.1 aminoacylation ribozyme variant] | 3.13 | 2.11 | 5.05 | 1.47 | 1.87 | 1.86
UUACUUCAAACAAACGGUCUG [Fam1A.1 aminoacylation ribozyme variant] | 1.17 | 1.23 | 1.38 | 1.26 | 1.27 | 1.15
AUUCACCUAGGUCAUCGUGGG [Fam2.2 aminoacylation ribozyme variant] | 1.03 | 1.19 | 0.781 | 1.24 | 0.893 | 1.15
CCACACUCCAAGCAAUCGUUC [Fam1B.1 aminoacylation ribozyme variant] | 1.19 | 0.477 | 0.617 | 0.663 | 0.967 | 1
AAGUUUGCUACUAGUUGCAAG [Fam3.1 aminoacylation ribozyme variant] | 0.871 | 0.738 | 0.908 | 0.909 | 0.91 | 0.685
CUACUGCAAACGAUCGGUCUG [Fam1A.1 aminoacylation ribozyme variant] | 0.572 | 1.2 | 0.688 | 0.743 | 0.694 | 0.88
CUACUUAAAACAAUCGGUCUG [Fam1A.1 aminoacylation ribozyme variant] | 0.859 | 0.637 | 0.65 | 0.767 | 0.78 | 0.786
AAAUUUGCUAAUAGUCUCAAG [Fam3.1 aminoacylation ribozyme variant] | 2.03 | 1.39 | 1.78 | 1.26 | 1.68 | 1.51
AAGUUUGCUAAUGGUCACAAG [Fam3.1 aminoacylation ribozyme variant] | 0.977 | 0.864 | 1.21 | 0.742 | 1.04 | 0.817
CCACACUUCAAGCAAUCCUUC [Fam1B.1 aminoacylation ribozyme variant] | 1.19 | 0.44 | 0.533 | 0.649 | 0.89 | 0.899
AGUCACCUAGGUCAUCGGGUA [Fam2.2 aminoacylation ribozyme variant] | 60 | 12.7 | 9.54 | 11.6 | 6.85 | 6.5
CCACUUUAAACAAUCGGUCUG [Fam1A.1 aminoacylation ribozyme variant] | 1.58 | 1.01 | 1.18 | 1.17 | 1.03 | 0.912
AUUACCGUGGUCAUCGAUUGA [Fam2.1 aminoacylation ribozyme variant] | 0.63 | 1.17 | 0.695 | 1.2 | 0.997 | 1.08
CUACUUCAAACAGUCGGUUUG [Fam1A.1 aminoacylation ribozyme variant] | 0.578 | 0.833 | 0.676 | 0.718 | 0.805 | 0.815
CUACGUCAAACAAUCUGUCUG [Fam1A.1 aminoacylation ribozyme variant] | 1.01 | 0.806 | 0.435 | 0.872 | 0.907 | 0.821
AAGUAUGCUAAUAGUCGAAAG [Fam3.1 aminoacylation ribozyme variant] | 15.7 | 1.31 | 4.62 | 1.7 | 1.48 | 1.21
CUACUUUAAACAUUCGGUCUG [Fam1A.1 aminoacylation ribozyme variant] | 0.818 | 1.07 | 1.09 | 1.09 | 1.11 | 1.15
AAGUUUGCAAAUAGGCGCAAG [Fam3.1 aminoacylation ribozyme variant] | 0.57 | 0.746 | 0.52 | 0.692 | 0.7 | 0.733
AAGUUUGCUAAUGGUCUCAAG [Fam3.1 aminoacylation ribozyme variant] | 0.986 | 0.763 | 0.883 | 0.797 | 0.718 | 0.825
AUUAGCCUGGUCAUCGAGUGA [Fam2.1 aminoacylation ribozyme variant] | 21.7 | 7.65 | 9.2 | 7.22 | 4.61 | 4.55
CUACGUCAAACAAUCAGUCUG [Fam1A.1 aminoacylation ribozyme variant] | 1.05 | 0.808 | 0.646 | 0.824 | 0.884 | 0.792
AUUACCCUGGUGAUCGAGUUA [Fam2.1 aminoacylation ribozyme variant] | 0.818 | 0.838 | 0.848 | 1.1 | 0.887 | 0.99

Sequence | self-aminoacylation (biotinyl-Phe-oxazolone) | self-aminoacylation (biotinyl-Leu-oxazolone) | self-aminoacylation (biotinyl-Trp-oxazolone) | self-aminoacylation (biotinyl-Met-oxazolone) | self-aminoacylation (biotinyl-Ile-oxazolone) | self-aminoacylation (biotinyl-Val-oxazolone)
ACUCACCUAGGUCAUCGGGUC [Fam2.2 aminoacylation ribozyme variant] | 7.01 | 1.62 | 1.6 | 2.24 | 1.51 | 1.84
AAGUUUGCUAAUUGUCGCAAC [Fam3.1 aminoacylation ribozyme variant] | 1.38 | 1.04 | 2.13 | 1.49 | 1.31 | 1.45
AAGUUUGCUAAUACUCACAAG [Fam3.1 aminoacylation ribozyme variant] | 0.906 | 0.685 | 0.721 | 0.609 | 0.818 | 0.909
CUACACUUCAAGCAAACGGUC [Fam1B.1 aminoacylation ribozyme variant] | 0.776 | 0.525 | 0.452 | 0.546 | 0.576 | 0.563
AUUACCCUGUUCAUCGAGUCA [Fam2.1 aminoacylation ribozyme variant] | 1.02 | 0.956 | 0.671 | 0.829 | 1.17 | 1.08
AAGUGUGCUAAUAGUCGCAAC [Fam3.1 aminoacylation ribozyme variant] | 1.4 | 1.36 | 1.7 | 1.1 | 1.53 | 1.27
CUCCUUCAAACAACCGGUCUG [Fam1A.1 aminoacylation ribozyme variant] | 1.19 | 0.817 | 1.48 | 0.864 | 1.05 | 0.859
CUACUUCAAACAAUCGUUCUG [Fam1A.1 aminoacylation ribozyme variant] | 1.84 | 0.464 | 0.843 | 0.49 | 0.571 | 0.603
AUUCACCUAGAUCAUCGGAUG [Fam2.2 aminoacylation ribozyme variant] | 0.602 | 0.709 | 0.536 | 0.708 | 0.775 | 0.851
AAGAUUGCUAAUUGUCGCAAG [Fam3.1 aminoacylation ribozyme variant] | 1.82 | 2 | 3.92 | 1.53 | 1.87 | 1.74
CUACUUCAAAGAAACGGUCUG [Fam1A.1 aminoacylation ribozyme variant] | 0.822 | 0.692 | 0.727 | 0.814 | 0.749 | 0.877
CCACACUUCUAGCAAUCAGUC [Fam1B.1 aminoacylation ribozyme variant] | 1.14 | 0.622 | 0.459 | 0.648 | 0.797 | 0.721
AUCCACCUAGUUCAUCGGGUG [Fam2.2 aminoacylation ribozyme variant] | 24.1 | 4.83 | 4.63 | 3.53 | 2.9 | 3.24
AAGGUUGCUAGUAGUCGCAAG [Fam3.1 aminoacylation ribozyme variant] | 1.77 | 0.971 | 1.3 | 1.3 | 1.18 | 1.07
AUUACCCUGGUCAUCGACGGA [Fam2.1 aminoacylation ribozyme variant] | 1.33 | 1.39 | 1.76 | 1.52 | 1.07 | 0.964
CUAUUUCAAACAAUCGCUCUG [Fam1A.1 aminoacylation ribozyme variant] | 0.863 | 0.609 | 0.592 | 0.638 | 0.726 | 0.733
CUACUUCAAACAGGCGGUCUG [Fam1A.1 aminoacylation ribozyme variant] | 0.701 | 0.985 | 0.971 | 1.14 | 1.16 | 1.18
CCACAAUUCAAGCAAUCCGUC [Fam1B.1 aminoacylation ribozyme variant] | 0.879 | 1.13 | 1.03 | 1.32 | 1.51 | 1.36
CAACUUCAAACAAUCGGUAUG [Fam1A.1 aminoacylation ribozyme variant] | 33.3 | 1.61 | 21 | 1.31 | 1.21 | 1.04
AUUACCCUGCUGAUCGAGUGA [Fam2.1 aminoacylation ribozyme variant] | 10.4 | 2.87 | 2.77 | 2.68 | 1.93 | 1.67
CCACACGUCAAGCUAUCGGUC [Fam1B.1 aminoacylation ribozyme variant] | 0.826 | 1.22 | 1.18 | 1.21 | 1.04 | 1.79
AUUCACCUAGGUCAGCGAGUG [Fam2.2 aminoacylation ribozyme variant] | 25.3 | 6.37 | 5.84 | 4.93 | 3.44 | 3.34
AAGUUUGCUAAUCGUCGCAGG [Fam3.1 aminoacylation ribozyme variant] | 1.66 | 1.18 | 0.759 | 1.3 | 0.995 | 1.06
CCACACUGCAAACAAUCGGUC [Fam1B.1 aminoacylation ribozyme variant] | 1.17 | 1.01 | 0.811 | 0.939 | 1.22 | 1.25
AUCACCCUGGUCAUCGAGUCA [Fam2.1 aminoacylation ribozyme variant] | 0.672 | 0.847 | 0.571 | 1.12 | 0.895 | 0.989
